For one substance, step yield results are on record in patent publication US20250127918A1 (priority 2023, published 2025).

The nature of the series: general procedure: Fmoc solid-phase peptide synthesis in flow; ChemMatrix H-Rink Amide resin ([…], 150 mg; […] for GLP-01); HATU/DIEA (manual coupling of unnatural amino acids); PyAOP for Aib and N-termin. The following applies: late stage modification step.

As for “H2N-PEG8- FNMQQQRRFYEALHD PNLNHcyEQRNAKIKSI RDD”, the step yield is listed as 58%.
